Data taken from the supplement of paper PMC10849652.
This is one part of the list.

The chains behind the UniProt entries cited, without tags or fusion partners. Where a name states a change or a piece, a line headed by the entry shows the natural chain unless it says otherwise.
UniProt Q969S0: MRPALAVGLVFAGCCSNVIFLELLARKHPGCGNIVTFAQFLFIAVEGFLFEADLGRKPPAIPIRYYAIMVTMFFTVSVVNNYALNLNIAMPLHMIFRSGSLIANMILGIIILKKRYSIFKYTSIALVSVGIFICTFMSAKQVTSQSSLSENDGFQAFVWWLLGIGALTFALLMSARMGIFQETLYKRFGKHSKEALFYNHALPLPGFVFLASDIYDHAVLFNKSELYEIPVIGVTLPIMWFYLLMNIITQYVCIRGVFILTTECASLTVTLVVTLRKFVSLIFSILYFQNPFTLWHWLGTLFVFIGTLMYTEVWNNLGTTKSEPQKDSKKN
UniProt P53794: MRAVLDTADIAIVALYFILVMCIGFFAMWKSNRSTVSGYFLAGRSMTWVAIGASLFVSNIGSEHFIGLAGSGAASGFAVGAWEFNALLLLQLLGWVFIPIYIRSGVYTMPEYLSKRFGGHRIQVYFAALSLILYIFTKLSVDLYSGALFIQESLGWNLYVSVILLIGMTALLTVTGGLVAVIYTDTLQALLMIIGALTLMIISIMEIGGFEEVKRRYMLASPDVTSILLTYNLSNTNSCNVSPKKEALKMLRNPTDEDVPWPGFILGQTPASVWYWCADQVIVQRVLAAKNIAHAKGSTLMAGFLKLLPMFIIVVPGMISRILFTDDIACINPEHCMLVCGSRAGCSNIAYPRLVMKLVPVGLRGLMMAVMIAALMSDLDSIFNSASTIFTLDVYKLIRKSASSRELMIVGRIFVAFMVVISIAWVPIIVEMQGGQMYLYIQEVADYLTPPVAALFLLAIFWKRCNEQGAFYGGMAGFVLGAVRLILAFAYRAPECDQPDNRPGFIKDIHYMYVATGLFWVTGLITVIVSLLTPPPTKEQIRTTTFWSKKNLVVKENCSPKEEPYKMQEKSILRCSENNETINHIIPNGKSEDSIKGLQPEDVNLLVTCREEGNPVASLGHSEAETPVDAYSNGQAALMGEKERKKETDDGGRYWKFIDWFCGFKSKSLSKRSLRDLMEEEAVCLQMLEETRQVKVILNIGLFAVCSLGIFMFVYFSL
UniProt Q6NXT4: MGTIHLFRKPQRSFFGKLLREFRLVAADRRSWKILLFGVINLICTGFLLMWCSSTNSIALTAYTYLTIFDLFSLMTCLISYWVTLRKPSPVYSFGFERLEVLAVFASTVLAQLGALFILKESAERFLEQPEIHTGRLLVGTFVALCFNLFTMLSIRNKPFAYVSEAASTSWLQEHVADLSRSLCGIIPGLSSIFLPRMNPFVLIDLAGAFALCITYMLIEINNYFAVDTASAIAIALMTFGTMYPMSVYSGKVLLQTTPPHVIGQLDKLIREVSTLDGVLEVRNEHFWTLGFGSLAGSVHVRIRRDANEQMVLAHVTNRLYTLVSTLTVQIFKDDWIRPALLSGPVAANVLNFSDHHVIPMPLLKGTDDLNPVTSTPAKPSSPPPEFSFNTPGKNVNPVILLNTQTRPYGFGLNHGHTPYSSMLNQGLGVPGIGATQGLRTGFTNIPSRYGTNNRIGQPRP
UniProt P48029: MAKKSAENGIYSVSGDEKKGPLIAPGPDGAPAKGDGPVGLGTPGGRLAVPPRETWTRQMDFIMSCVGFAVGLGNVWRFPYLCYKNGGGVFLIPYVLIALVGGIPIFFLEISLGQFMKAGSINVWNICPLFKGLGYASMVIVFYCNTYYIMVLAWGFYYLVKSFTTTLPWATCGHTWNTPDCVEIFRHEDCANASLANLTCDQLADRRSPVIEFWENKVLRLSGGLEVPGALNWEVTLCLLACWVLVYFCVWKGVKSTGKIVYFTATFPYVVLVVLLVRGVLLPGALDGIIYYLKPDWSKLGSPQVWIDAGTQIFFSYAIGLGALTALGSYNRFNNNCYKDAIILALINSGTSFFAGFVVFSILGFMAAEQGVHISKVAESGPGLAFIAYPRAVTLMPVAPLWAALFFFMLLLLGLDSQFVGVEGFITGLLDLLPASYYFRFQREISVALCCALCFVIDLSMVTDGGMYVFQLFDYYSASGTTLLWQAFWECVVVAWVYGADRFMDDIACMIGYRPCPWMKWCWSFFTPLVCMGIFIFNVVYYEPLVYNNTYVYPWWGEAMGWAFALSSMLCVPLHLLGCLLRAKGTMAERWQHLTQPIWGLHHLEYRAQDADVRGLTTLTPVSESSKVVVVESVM
UniProt Q9C0K1: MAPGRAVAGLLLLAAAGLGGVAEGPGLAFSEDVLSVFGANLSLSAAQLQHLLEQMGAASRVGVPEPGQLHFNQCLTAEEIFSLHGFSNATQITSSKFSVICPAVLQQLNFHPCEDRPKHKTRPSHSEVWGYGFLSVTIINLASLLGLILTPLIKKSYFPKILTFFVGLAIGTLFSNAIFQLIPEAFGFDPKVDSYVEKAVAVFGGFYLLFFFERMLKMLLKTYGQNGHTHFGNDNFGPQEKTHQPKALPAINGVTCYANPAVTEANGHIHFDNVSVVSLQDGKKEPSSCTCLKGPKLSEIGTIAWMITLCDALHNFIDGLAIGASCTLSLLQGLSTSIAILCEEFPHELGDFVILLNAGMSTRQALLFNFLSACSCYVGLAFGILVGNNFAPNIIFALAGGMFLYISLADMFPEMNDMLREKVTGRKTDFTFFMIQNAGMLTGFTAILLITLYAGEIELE
UniProt Q96T83: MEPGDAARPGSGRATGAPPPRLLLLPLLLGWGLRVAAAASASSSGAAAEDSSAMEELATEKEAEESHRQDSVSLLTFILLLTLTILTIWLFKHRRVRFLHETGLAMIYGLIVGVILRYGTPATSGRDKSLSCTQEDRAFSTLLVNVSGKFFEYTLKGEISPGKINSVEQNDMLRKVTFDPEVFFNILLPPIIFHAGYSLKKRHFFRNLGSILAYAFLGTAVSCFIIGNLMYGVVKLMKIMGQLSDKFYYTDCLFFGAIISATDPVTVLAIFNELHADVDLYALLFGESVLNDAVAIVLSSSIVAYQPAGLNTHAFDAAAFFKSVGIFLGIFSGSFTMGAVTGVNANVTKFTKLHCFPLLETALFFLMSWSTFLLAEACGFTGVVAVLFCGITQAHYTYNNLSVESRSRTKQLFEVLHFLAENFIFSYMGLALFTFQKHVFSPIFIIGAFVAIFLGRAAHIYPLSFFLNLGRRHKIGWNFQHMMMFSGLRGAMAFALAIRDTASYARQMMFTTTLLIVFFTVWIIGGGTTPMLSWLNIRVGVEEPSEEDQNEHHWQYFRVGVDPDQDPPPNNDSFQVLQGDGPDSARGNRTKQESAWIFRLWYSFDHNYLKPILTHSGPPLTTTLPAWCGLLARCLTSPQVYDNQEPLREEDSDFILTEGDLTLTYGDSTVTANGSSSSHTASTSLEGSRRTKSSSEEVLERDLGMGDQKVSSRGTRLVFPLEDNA
UniProt O95391: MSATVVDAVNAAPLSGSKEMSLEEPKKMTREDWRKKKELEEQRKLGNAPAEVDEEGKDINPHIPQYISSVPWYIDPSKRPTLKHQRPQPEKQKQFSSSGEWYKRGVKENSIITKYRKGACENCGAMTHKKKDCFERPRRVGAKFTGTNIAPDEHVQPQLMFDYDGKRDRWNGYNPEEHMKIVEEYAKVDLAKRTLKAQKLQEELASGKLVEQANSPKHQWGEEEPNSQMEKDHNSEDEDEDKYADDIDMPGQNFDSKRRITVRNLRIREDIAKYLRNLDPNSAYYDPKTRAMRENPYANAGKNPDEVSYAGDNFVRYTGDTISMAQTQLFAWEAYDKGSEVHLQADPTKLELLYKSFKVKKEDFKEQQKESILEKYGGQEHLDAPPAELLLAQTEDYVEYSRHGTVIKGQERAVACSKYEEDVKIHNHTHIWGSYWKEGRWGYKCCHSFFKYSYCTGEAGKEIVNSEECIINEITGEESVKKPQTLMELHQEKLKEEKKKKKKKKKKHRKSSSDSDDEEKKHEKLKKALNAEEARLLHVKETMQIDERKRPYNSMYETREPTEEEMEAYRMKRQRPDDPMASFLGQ
UniProt Q8N2U9: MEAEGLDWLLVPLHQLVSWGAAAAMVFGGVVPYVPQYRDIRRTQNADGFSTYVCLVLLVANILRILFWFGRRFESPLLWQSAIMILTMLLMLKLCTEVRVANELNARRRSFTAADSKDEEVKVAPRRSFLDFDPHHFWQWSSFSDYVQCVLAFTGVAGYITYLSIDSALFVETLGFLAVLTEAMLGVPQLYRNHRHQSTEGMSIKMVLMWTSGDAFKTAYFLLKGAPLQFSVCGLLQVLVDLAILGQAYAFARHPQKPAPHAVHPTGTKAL
UniProt P16260: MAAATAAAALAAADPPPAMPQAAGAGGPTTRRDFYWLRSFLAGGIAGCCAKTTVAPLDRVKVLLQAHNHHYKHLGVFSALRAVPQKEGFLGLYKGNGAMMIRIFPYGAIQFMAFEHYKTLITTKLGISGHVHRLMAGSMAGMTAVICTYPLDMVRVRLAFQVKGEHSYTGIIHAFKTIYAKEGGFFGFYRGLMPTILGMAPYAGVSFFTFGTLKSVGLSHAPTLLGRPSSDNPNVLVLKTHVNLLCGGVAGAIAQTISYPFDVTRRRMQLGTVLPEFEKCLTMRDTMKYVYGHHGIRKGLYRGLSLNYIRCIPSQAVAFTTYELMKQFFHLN
UniProt P0CK96: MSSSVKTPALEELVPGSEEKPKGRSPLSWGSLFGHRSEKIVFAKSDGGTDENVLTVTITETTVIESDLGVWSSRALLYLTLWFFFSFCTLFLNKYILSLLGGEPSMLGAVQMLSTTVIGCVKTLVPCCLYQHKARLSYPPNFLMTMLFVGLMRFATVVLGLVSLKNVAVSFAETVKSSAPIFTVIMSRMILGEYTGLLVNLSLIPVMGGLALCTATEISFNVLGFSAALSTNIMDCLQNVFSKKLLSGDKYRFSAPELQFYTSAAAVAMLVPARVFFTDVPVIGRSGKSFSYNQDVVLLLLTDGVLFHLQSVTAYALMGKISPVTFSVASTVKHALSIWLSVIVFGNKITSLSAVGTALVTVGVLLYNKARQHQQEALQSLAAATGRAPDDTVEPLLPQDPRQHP
UniProt Q0VAQ4: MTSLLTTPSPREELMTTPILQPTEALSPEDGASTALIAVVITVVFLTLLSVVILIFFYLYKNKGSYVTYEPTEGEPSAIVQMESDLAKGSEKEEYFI
UniProt P84022, whole entry, looked up: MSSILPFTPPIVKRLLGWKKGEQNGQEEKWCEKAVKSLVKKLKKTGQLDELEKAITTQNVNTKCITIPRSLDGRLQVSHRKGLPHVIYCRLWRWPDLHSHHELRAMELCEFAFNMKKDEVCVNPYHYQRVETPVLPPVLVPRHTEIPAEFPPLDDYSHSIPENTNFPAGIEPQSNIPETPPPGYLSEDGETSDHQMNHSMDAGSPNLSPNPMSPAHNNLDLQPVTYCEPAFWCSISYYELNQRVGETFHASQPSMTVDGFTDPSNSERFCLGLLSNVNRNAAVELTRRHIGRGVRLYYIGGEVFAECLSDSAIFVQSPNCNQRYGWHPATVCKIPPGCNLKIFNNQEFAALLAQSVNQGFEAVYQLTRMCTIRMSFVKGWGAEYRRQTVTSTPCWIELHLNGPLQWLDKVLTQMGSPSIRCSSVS
UniProt Q9UGH3: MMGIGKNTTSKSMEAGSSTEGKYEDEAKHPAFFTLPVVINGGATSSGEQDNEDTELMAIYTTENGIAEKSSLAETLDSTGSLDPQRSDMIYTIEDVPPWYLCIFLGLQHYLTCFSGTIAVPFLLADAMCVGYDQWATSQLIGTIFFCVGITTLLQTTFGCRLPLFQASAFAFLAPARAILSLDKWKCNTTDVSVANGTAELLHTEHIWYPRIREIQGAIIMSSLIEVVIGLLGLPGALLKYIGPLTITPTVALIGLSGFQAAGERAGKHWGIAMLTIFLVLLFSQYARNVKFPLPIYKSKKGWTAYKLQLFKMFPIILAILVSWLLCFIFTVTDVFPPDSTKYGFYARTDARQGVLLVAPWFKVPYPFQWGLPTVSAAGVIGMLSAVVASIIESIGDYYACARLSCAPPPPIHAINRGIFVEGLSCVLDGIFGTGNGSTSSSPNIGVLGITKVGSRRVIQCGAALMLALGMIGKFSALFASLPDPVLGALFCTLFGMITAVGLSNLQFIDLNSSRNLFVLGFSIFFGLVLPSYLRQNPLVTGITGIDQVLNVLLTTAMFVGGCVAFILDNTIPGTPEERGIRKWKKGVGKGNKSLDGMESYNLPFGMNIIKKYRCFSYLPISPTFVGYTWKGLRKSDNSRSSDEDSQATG
UniProt Q96NT5: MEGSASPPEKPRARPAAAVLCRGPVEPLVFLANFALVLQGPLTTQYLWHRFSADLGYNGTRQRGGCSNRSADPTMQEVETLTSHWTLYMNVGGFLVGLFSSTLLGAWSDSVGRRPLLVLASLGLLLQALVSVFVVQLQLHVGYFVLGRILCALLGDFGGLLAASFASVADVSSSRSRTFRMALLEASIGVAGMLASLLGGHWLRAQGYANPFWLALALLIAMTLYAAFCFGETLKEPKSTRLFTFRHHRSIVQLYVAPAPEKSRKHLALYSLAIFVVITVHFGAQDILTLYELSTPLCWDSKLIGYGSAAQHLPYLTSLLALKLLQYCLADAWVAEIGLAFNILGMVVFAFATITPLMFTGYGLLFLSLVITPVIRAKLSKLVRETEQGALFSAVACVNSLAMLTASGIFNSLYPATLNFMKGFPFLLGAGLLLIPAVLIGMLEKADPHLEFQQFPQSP

Assays:
Assay in all cases: log2 fold change, soluble protein after heating vs DMSO (PISA); higher = thermal stabilisation; K562 lysate, 10 uM; active = over 0.2 and 3.5 SD of the protein, either way, in both replicates (recomputed)
vemurafenib = compound: CCCS(=O)(=O)Nc1ccc(F)c(C(=O)c2c[nH]c3ncc(-c4ccc(Cl)cc4)cc23)c1F [vemurafenib]
How it was run: (§1)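 Thermal stability, expressed as log-two fold change relative to solvent controls, is given from duplicates. Crude K562 extract in PBS pH 7.4 with 1 mM MgCl2, at 1 mg/mL protein, was treated with 10 μM compound for 30 min and heated in aliquots for 3 min across 48°C-58°C. After pooling, adjustment to 0.5% NP-40 at 4°C and centrifugation at 21,000xg for 90 min, supernatant protein was measured by TMTpro 16plex LC-MS/MS with channel sums equalised.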

[1] = compound: CCCS(=O)(=O)Nc1ccc(F)c(C(=O)c2c[nH]c3ncc(Cl)cc23)c1F
How it was run: as §1

barasertib = compound: CCN(CCCOc1ccc2c(Nc3cc(CC(=O)Nc4cccc(F)c4)[nH]n3)ncnc2c1)CCOP(=O)(O)O [barasertib]
How it was run: as §1

volasertib = compound: CC[C@@H]1C(=O)N(C)c2cnc(Nc3ccc(C(=O)N[C@H]4CC[C@H](N5CCN(CC6CC6)CC5)CC4)cc3OC)nc2N1C(C)C [volasertib]
How it was run: as §1

[2] = compound: CCn1c(C(=O)N(C2CC2)C2CC2)cc2c3c(ncn3C)c(Nc3cc(C)n(C)n3)nc21
How it was run: as §1

[3] = compound: CCn1cc(-c2ccnc3[nH]c(-c4cccc(CN(C)C)c4)cc23)c(-c2ccc(NC(=O)N(C)C)cc2)n1
How it was run: as §1

[4] = compound: CN1CCC(CNc2ccc3ncc(-c4cccc(OC(F)(F)F)c4)n3n2)CC1
How it was run: as §1

saracatinib = compound: CN1CCN(CCOc2cc(OC3CCOCC3)c3c(Nc4c(Cl)ccc5c4OCO5)ncnc3c2)CC1 [saracatinib]
How it was run: as §1

sotrastaurin = compound: CN1CCN(c2nc(C3=C(c4c[nH]c5ccccc45)C(=O)NC3=O)c3ccccc3n2)CC1 [sotrastaurin]
How it was run: as §1

[5] = compound: CC[C@@H]1C(=O)N(C)c2cnc(Nc3ccc(C(=O)NC4CCN(C)CC4)cc3OC)nc2N1C1CCCC1
How it was run: as §1

Measured: log2 fold change

SLC35B3 (UniProt Q9H1N7)
inactive: vemurafenib 0.183 | [1] 0.025 | barasertib 0.171 | volasertib 0.058 | [2] -0.025 | [3] -0.023 | [4] 0.03 | saracatinib 0.08 | sotrastaurin 0

SLC35B4 (UniProt Q969S0)
inactive: vemurafenib 0.05 | [1] 0.035 | barasertib 0.046 | [5] 0.067 | volasertib 0.035 | [2] -0.053 | [3] -0.171 | [4] 0.152 | sotrastaurin 0.091

SLC25A13 isoform 2 (UniProt Q9UJS0)
inactive: vemurafenib 0.013 | [1] -0.002 | barasertib -0.008 | [5] 0.026 | volasertib 0.016 | [2] -0.022 | [3] -0.098 | [4] 0.036 | saracatinib -0.003 | sotrastaurin 0.029

SLC29A2 (UniProt Q14542)
inactive: vemurafenib 0.003 | [1] 0.012 | barasertib 0.029 | [5] 0.049 | volasertib -0.041 | [2] -0.079 | [4] 0.206 | saracatinib -0.004 | sotrastaurin 0.013
active: [3] -0.729

SMAD4 (UniProt Q13485)
inactive: vemurafenib 0.019 | [1] 0.009 | barasertib -0.033 | [5] 0.017 | volasertib -0.003 | [2] -0.001 | [3] -0.049 | [4] 0.035 | saracatinib 0.039 | sotrastaurin -0.026

SLC5A3 (UniProt P53794)
inactive: vemurafenib 0.029 | [1] -0.035 | barasertib -0.063 | [5] 0.023 | volasertib 0.045 | [2] 0.013 | [3] 0.168 | [4] -0.022 | saracatinib 0.017 | sotrastaurin 0.02

SLC30A6 isoform 2 (UniProt Q6NXT4)
inactive: vemurafenib -0.098 | [1] 0.018 | barasertib 0.146 | [5] 0.105 | volasertib 0.001 | [2] -0.03 | [3] -0.127 | [4] 0.063 | sotrastaurin -0.004

SLC4A2 (UniProt P04920)
inactive: vemurafenib 0.005 | [1] 0.002 | barasertib -0.023 | [5] 0.03 | volasertib -0.023 | [2] 0.015 | [3] -0.018 | [4] 0.041 | saracatinib 0.022 | sotrastaurin 0.039

SLC38A7 (UniProt Q9NVC3)
inactive: vemurafenib 0.05 | [1] 0.022 | barasertib -0.016 | [5] -0.066 | volasertib 0.031 | [3] 0.039 | [4] 0.021 | saracatinib 0 | sotrastaurin -0.156

SLC35A2 isoform 4 (UniProt P78381)
inactive: vemurafenib 0.106 | [1] -0.102 | barasertib 0.012 | [5] 0.135 | volasertib -0.044 | [2] 0.013 | [3] -0.343 | [4] 0.056 | saracatinib -0.059 | sotrastaurin -0.02

SLC30A5 (UniProt Q8TAD4)
inactive: vemurafenib 0.067 | [1] 0.013 | barasertib 0.017 | [5] -0.004 | volasertib 0.043 | [2] 0.045 | [3] -0.119 | [4] 0.032 | saracatinib 0.053 | sotrastaurin 0.041

SLC6A8 (UniProt P48029)
inactive: vemurafenib 0.037 | [1] 0.04 | barasertib -0.008 | [5] 0.026 | volasertib 0.045 | [2] -0.065 | [3] -0.188 | [4] 0.088 | saracatinib -0.003 | sotrastaurin -0.078

SLC3A2 isoform 3 (UniProt P08195)
inactive: vemurafenib 0.012 | [1] -0.017 | barasertib -0.015 | [5] 0.042 | volasertib 0.037 | [2] -0.03 | [3] -0.016 | [4] 0.022 | saracatinib 0.013 | sotrastaurin 0.011

SLC39A8 (UniProt Q9C0K1)
inactive: vemurafenib -0.056 | [1] -0.037 | [5] 0.018 | volasertib 0.062 | [2] -0.042 | [3] -0.057 | [4] 0.108 | sotrastaurin 0.053

SMARCA2 (UniProt P51531)
inactive: vemurafenib 0.041 | [1] 0.04 | barasertib 0.061 | [5] 0.075 | volasertib -0.024 | [2] 0.037 | [3] 0.129 | [4] -0.069 | saracatinib 0.042 | sotrastaurin -0.011

SLC25A28 (UniProt Q96A46)
inactive: vemurafenib -0.441 | [5] 0.205 | sotrastaurin -0.124

SLC35C2 isoform 3 (UniProt Q9NQQ7)
inactive: [1] -0.049 | barasertib 0.129 | [5] -0.141 | volasertib 0.075 | [2] 0.012 | [3] 0.028 | [4] 0.244 | saracatinib -0.026 | sotrastaurin 0.024

SLCO2B1 (UniProt O94956)
inactive: [5] -0.155 | [3] -0.117 | [4] 0.135

SLC39A1 (UniProt Q9NY26)
inactive: [1] -0.012 | barasertib 0.212 | volasertib 0.069 | [2] 0.03 | [3] -0.323 | [4] 0.372 | saracatinib 0.02 | sotrastaurin 0.036

SLC36A4 (UniProt Q6YBV0)
inactive: [1] -0.092 | barasertib -0.326 | [5] 0.183 | volasertib 0.033 | [2] -0.038 | [3] 0.001 | [4] 0.097 | saracatinib 0.174 | sotrastaurin 0.027

SLC29A3 (UniProt Q9BZD2)
inactive: [1] -0.103 | volasertib -0.048 | [2] 0.06 | [3] -0.109 | [4] 0.078 | sotrastaurin -0.077

SLC41A3 isoform 9 (UniProt Q96GZ6)
inactive: vemurafenib 0.121 | barasertib -0.146 | [5] 0.043 | [2] -0.097 | [3] -0.437 | [4] 0.033

SLC9A7 (UniProt Q96T83)
inactive: [1] 0.041 | barasertib 0.249 | volasertib -0.038 | sotrastaurin -0.105

SLU7 (UniProt O95391)
inactive: vemurafenib -0.043 | barasertib -0.07 | [5] 0.062 | [2] -0.004 | [3] -0.188 | [4] 0.166 | saracatinib 0.093 | sotrastaurin -0.027

SLC3A2 (UniProt F5H867)
inactive: [1] 0.024 | barasertib -0.011 | volasertib 0.051 | [3] -0.111 | [4] 0.106

SLC25A23 isoform 3 (UniProt Q9BV35)
inactive: [1] 0.03 | volasertib 0.02 | [2] -0.078 | [3] -0.087 | [4] 0.172 | saracatinib -0.131 | sotrastaurin -0.046

Two records picked at random from those above, as already listed:
SLC4A2 (UniProt P04920)
inactive: vemurafenib 0.005 | [1] 0.002 | barasertib -0.023 | [5] 0.03 | volasertib -0.023 | [2] 0.015 | [3] -0.018 | [4] 0.041 | saracatinib 0.022 | sotrastaurin 0.039

SLC25A23 isoform 3 (UniProt Q9BV35)
inactive: [1] 0.03 | volasertib 0.02 | [2] -0.078 | [3] -0.087 | [4] 0.172 | saracatinib -0.131 | sotrastaurin -0.046

The results go on.

SLC3A2 (UniProt F5GZS6)
inactive: [1] 0.046 | barasertib -0.053 | [5] 0.204 | volasertib 0.068 | [2] 0.07 | [3] -0.052 | [4] 0.089 | saracatinib 0.015

SLC66A2 (UniProt Q8N2U9)
inactive: [1] -0.013 | barasertib 0.093 | [5] -0.016 | volasertib -0.032 | [2] 0.026 | saracatinib -0.054

SLC25A16 (UniProt P16260)
inactive: vemurafenib -0.02 | [3] 0.298 | [4] -0.051 | sotrastaurin -0.069

SLC66A1 (UniProt Q6ZP29)
inactive: [1] 0.048 | barasertib 0.047 | volasertib -0.133 | [2] 0 | [3] 0.054 | [4] -0.021 | sotrastaurin -0.004

SMAD5 (UniProt Q99717)
inactive: vemurafenib 0.035 | barasertib 1.42 | [5] 0.258 | [3] -0.194 | [4] 0.086 | saracatinib 0.081 | sotrastaurin 0.002

SLC35E2B (UniProt P0CK96)
inactive: vemurafenib -0.049 | [5] -0.082

SMAGP (UniProt Q0VAQ4)
inactive: [1] -0.059 | [5] -0.151 | volasertib 0.062 | [2] -0.029 | [3] -0.129 | [4] -0.029 | saracatinib 0.098 | sotrastaurin 0.017

SLCO4A1 (UniProt Q96BD0)
inactive: barasertib 0.037 | [3] -0.015 | [4] 0.042

SMAD3 (UniProt P84022)
inactive: [1] -0.083 | volasertib -0.023 | [2] 0.039 | saracatinib 0.015 | sotrastaurin 0.011

SLC35A1 (UniProt P78382)
inactive: vemurafenib 0.038 | barasertib 0.085 | [3] -0.099 | [4] 0.066 | sotrastaurin 0.131

SLC9B2 (UniProt Q86UD5)
inactive: [1] -0.05 | volasertib -0.091 | [2] 0.065 | sotrastaurin 0.06

SLC39A13 (UniProt Q96H72)
inactive: [2] 0.035

SLC39A6 (UniProt Q13433)
inactive: [1] 0.039 | volasertib -0.015 | [2] 0.005 | [3] 0.221 | [4] 0.019 | sotrastaurin -0.031

SLC2A13 (UniProt Q96QE2)
inactive: [5] 0.019 | [3] 0.078 | [4] 0.006 | saracatinib 0.012

SLFN14 (UniProt P0C7P3)
inactive: vemurafenib -0.139 | barasertib 0.001 | [5] 0.011 | [3] 0.059 | [4] -0.019 | sotrastaurin -0.014

SLC23A2 (UniProt Q9UGH3)
inactive: [1] -0.122 | [5] 0.135 | volasertib -0.213 | [2] -0.094 | [3] -0.352 | [4] 0.241 | saracatinib 0.072 | sotrastaurin 0.036

SLC50A1 (UniProt Q9BRV3)
inactive: [1] 0.277 | volasertib 0 | [2] 0.139 | [3] -0.165 | [4] 0.069 | saracatinib -0.068 | sotrastaurin 0.156

SLC66A3 (UniProt Q8N755)
inactive: vemurafenib 0.079 | [1] 0.024 | volasertib -0.029 | saracatinib 0.069 | sotrastaurin -0.068

SLC25A39 (UniProt Q9BZJ4)
inactive: [3] -0.125 | [4] -0.568 | saracatinib -0.06

SLC26A11 (UniProt Q86WA9)
inactive: [3] -0.043 | [4] 0.273 | sotrastaurin 0.009

SLC9A8 isoform 2 (UniProt Q9Y2E8)
inactive: [1] 0.01 | barasertib 0.068 | volasertib -0.023 | [2] 0.012 | [3] -0.025 | [4] 0.046 | saracatinib -0.072 | sotrastaurin 0.07

SLC44A1 (UniProt Q8WWI5)
inactive: [2] -0.036 | [3] -0.498 | [4] 0.017 | saracatinib -0.135

SLC43A3 (UniProt Q8NBI5)
inactive: [1] -0.239 | barasertib -0.079 | volasertib 0.29 | [2] -0.251

SLC41A1 (UniProt Q8IVJ1)
inactive: [1] 0.021 | [5] 0.085 | volasertib -0.084 | [2] 0.035 | [3] 0.083 | [4] 0.06 | sotrastaurin 0.082

SLC25A35 (UniProt Q3KQZ1)
inactive: [5] 0.163 | [3] -0.112 | [4] 0.045 | sotrastaurin -0.044

SLX4 (UniProt Q8IY92)
inactive: saracatinib 0.277

SLC46A1 (UniProt Q96NT5)
inactive: [1] -0.017 | volasertib 0.006 | [3] -0.174 | [4] 0.027 | saracatinib -0.031

SLC35D1 (UniProt Q9NTN3)
inactive: vemurafenib 0.164 | sotrastaurin 0.083
